This is an account of results in PMC3066133.

This assay concerns the target HA-RI332, C-terminally truncated form of ribophorin-I with an HA epitope. The assay is described as follows: affinity purification with mass spectrometry.

These are yes or no findings as the source states them, for the method shown. Binding seen in cells or lysates may run through a third protein. These calls come from enrichment with a bait or labelling near it, and not all partners need be listed.

B1: DNAJC3/P58IPK (protein, UniProt Q13217 32-504)
chain: GVNADVEKHLELGKKLLAAGQLADALSQFHAAVDGDPDNYIAYYRRATVFLAMGKSKAALPDLTKVIQLKMDFTAARLQRGHLLLKQGKLDEAEDDFKKVLKSNPSENEEKEAQSQLIKSDEMQRLRSQALNAFGSGDYTAAIAFLDKILEVCVWDAELRELRAECFIKEGEPRKAISDLKAASKLKNDNTEAFYKISTLYYQLGDHELSLSEVRECLKLDQDHKRCFAHYKQVKKLNKLIESAEELIRDGRYTDATSKYESVMKTEPSIAEYTVRSKERICHCFSKDEKPVEAIRVCSEVLQMEPDNVNALKDRAEAYLIEEMYDEAIQDYETAQEHNENDQQIREGLEKAQRLLKQSQKRDYYKILGVKRNAKKQEIIKAYRKLALQWHPDNFQNEEEKKKAEKKFIDIAAAKEVLSDPEMRKKFDDGEDPLDAESQQGGGGNPFHRSWNSWQGFNPFSSGGPFRFKFHFN
Regarding B1, the binding result is “binds”.

B2: UGGT2 (protein, UniProt Q9NYU1 28-1516)
chain: TVAASKSVTAHLAAKWPETPLLLEASEFMAEESNEKFWQFLETVQELAIYKQTESDYSYYNLILKKAGQFLDNLHINLLKFAFSIRAYSPAIQMFQQIAADEPPPDGCNAFVVIHKKHTCKINEIKKLLKKAASRTRPYLFKGDHKFPTNKENLPVVILYAEMGTRTFSAFHKVLSEKAQNEEILYVLRHYIQKPSSRKMYLSGYGVELAIKSTEYKALDDTQVKTVTNTTVEDETETNEVQGFLFGKLKEIYSDLRDNLTAFQKYLIESNKQMMPLKVWELQDLSFQAASQIMSAPVYDSIKLMKDISQNFPIKARSLTRIAVNQHMREEIKENQKDLQVRFKIQPGDARLFINGLRVDMDVYDAFSILDMLKLEGKMMNGLRNLGINGEDMSKFLKLNSHIWEYTYVLDIRHSSIMWINDLENDDLYITWPTSCQKLLKPVFPGSVPSIRRNFHNLVLFIDPAQEYTLDFIKLADVFYSHEVPLRIGFVFILNTDDEVDGANDAGVALWRAFNYIAEEFDISEAFISIVHMYQKVKKDQNILTVDNVKSVLQNTFPHANIWDILGIHSKYDEERKAGASFYKMTGLGPLPQALYNGEPFKHEEMNIKELKMAVLQRMMDASVYLQREVFLGTLNDRTNAIDFLMDRNNVVPRINTLILRTNQQYLNLISTSVTADVEDFSTFFFLDSQDKSAVIAKNMYYLTQDDESIISAVTLWIIADFDKPSGRKLLFNALKHMKTSVHSRLGIIYNPTSKINEENTAISRGILAAFLTQKNMFLRSFLGQLAKEEIATAIYSGDKIKTFLIEGMDKNAFEKKYNTVGVNIFRTHQLFCQDVLKLRPGEMGIVSNGRFLGPLDEDFYAEDFYLLEKITFSNLGEKIKGIVENMGINANNMSDFIMKVDALMSSVPKRASRYDVTFLRENHSVIKTNPQENDMFFNVIAIVDPLTREAQKMAQLLVVLGKIINMKIKLFMNCRGRLSEAPLESFYRFVLEPELMSGANDVSSLGPVAKFLDIPESPLLILNMITPEGWLVETVHSNCDLDNIHLKDTEKTVTAEYELEYLLLEGQCFDKVTEQPPRGLQFTLGTKNKPAVVDTIVMAHHGYFQLKANPGAWILRLHQGKSEDIYQIVGHEGTDSQADLEDIIVVLNSFKSKILKVKVKKETDKIKEDILTDEDEKTKGLWDSIKSFTVSLHKENKKEKDVLNIFSVASGHLYERFLRIMMLSVLRNTKTPVKFWLLKNYLSPTFKEVIPHMAKEYGFRYELVQYRWPRWLRQQTERQRIIWGYKILFLDVLFPLAVDKIIFVDADQIVRHDLKELRDFDLDGAPYGYTPFCDSRREMDGYRFWKTGYWASHLLRRKYHISALYVVDLKKFRRIGAGDRLRSQYQALSQDPNSLSNLDQDLPNNMIYQVAIKSLPQDWLWCETWCDDESKQRAKTIDLCNNPKTKESKLKAAARIVPEWVEYDAEIRQLLDHLENKKQDTILTHDEL
As to B2, the binding result is “binds”.
